In assay [1] the target is HRD1 (mouse) (mouse (endogenous in MEFs and P0 liver)) (UniProt Q9DBY1). Kind of assay: co-IP; reciprocal IP of endogenous HRD1 (anti-HRD1, Protein A agarose) from MEF lysates; same lysis buffer; immunoblot.
Assay [2] deals with SEL1L (mouse, wild type) (mouse (endogenous in MEFs and P0 liver)) (UniProt Q9Z2G6). Kind of assay: co-IP; IP of endogenous SEL1L from P0 mouse liver lysates (WT, Sel1L^S658P, Sel1L^L709P); same lysis buffer; DERL2 eluted with 0.1 M glycine pH 2.5; immunoblot with quantification.
Assay [3] addresses SEL1L L709P (mouse knock-in, L705P in mouse numbering) (mouse (endogenous in MEFs and P0 liver)) (UniProt Q9Z2G6). The assay is described as above.
Assay [4] has as its target SEL1L (mouse, wild type) (mouse (endogenous in MEFs and P0 liver)) (UniProt Q9Z2G6). Kind of assay: co-IP; IP of endogenous SEL1L (1 ug anti-SEL1L, Protein A agarose, overnight 4 C) from MEF lysates (WT, Sel1L^S658P, Sel1L^L709P, Sel1L^P699T, Sel1L^ERCre KO); 150 mM NaCl, 25 mM Tris-HCl pH 7.5, 0.2% NP-40, 0.1% Triton X-100; immunoblot, prey band normalised to bait. For orientation: Immunoblotting shows a protein as a band on a membrane.

Sequences of proteins named here, by UniProt entry; tags and fusion partners are left off. Residues count along the entry.
UniProt Q9DBY1: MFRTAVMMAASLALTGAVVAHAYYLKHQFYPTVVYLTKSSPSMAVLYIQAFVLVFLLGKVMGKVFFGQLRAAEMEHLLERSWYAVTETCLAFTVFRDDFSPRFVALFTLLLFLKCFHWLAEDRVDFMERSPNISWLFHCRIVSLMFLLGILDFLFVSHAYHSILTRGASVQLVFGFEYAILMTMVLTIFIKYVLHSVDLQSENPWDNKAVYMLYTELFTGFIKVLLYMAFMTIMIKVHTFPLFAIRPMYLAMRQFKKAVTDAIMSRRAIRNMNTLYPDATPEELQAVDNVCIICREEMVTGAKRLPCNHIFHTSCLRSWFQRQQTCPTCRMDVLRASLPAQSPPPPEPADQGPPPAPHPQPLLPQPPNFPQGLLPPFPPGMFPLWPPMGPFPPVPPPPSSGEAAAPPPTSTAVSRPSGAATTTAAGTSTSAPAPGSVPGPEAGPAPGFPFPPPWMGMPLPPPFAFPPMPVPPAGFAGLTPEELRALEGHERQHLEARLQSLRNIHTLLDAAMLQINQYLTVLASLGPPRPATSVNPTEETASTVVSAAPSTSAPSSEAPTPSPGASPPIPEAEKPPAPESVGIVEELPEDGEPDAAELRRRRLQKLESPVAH
UniProt P20029, residues 20-655: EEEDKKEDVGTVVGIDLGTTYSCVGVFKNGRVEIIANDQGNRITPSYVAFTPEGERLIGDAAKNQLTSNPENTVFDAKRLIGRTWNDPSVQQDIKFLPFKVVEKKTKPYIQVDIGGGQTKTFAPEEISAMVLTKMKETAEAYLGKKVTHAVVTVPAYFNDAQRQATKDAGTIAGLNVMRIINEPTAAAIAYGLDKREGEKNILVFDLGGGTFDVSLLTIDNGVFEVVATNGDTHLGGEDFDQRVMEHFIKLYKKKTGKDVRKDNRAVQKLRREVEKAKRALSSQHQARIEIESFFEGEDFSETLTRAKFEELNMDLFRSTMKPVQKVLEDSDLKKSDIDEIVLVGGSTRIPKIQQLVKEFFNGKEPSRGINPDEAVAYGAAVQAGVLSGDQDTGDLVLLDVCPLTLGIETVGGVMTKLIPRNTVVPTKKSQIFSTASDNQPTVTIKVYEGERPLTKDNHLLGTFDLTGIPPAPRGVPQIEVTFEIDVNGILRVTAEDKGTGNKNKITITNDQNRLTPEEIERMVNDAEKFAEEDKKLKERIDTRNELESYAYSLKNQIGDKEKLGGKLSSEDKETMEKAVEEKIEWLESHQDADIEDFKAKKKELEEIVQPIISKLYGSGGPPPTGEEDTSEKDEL

Assay [5] addresses T1, SEL1L P699T (mouse knock-in, P695T in mouse numbering) (mouse (endogenous in MEFs)) (UniProt Q9Z2G6).
T1 sequence: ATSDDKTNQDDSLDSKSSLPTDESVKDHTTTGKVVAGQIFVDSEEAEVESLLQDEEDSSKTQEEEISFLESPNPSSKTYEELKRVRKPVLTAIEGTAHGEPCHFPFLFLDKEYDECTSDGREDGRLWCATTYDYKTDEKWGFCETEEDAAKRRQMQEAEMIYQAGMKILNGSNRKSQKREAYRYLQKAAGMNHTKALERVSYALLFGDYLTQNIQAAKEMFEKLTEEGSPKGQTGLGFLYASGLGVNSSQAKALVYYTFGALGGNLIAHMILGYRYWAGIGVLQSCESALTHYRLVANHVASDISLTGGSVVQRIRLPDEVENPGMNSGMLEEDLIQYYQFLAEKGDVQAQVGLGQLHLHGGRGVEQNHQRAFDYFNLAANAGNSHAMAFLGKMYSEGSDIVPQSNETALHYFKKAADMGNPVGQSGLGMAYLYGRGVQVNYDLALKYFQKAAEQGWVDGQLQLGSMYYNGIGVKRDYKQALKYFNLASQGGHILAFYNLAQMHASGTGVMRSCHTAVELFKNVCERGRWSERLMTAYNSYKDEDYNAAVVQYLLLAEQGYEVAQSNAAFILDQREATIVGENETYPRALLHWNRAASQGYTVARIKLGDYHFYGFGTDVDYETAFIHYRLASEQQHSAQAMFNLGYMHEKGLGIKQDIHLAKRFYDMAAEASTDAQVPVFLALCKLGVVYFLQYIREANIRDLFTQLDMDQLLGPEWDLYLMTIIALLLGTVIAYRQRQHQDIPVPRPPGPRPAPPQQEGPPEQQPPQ
The description is as above.

Assay [6] concerns the target SEL1L (human, wild type) (human (endogenous in HEK293T)) (UniProt Q9UBV2). Description: co-IP; IP of endogenous SEL1L from lysates of WT, SEL1L^L709P KI and KO HEK293T cells; immunoblot, quantification normalised to SEL1L.
Assay [7] concerns the target T2, SEL1L L709P (human, knock-in HEK293T) (human (endogenous in HEK293T)) (UniProt Q9UBV2).
T2 sequence: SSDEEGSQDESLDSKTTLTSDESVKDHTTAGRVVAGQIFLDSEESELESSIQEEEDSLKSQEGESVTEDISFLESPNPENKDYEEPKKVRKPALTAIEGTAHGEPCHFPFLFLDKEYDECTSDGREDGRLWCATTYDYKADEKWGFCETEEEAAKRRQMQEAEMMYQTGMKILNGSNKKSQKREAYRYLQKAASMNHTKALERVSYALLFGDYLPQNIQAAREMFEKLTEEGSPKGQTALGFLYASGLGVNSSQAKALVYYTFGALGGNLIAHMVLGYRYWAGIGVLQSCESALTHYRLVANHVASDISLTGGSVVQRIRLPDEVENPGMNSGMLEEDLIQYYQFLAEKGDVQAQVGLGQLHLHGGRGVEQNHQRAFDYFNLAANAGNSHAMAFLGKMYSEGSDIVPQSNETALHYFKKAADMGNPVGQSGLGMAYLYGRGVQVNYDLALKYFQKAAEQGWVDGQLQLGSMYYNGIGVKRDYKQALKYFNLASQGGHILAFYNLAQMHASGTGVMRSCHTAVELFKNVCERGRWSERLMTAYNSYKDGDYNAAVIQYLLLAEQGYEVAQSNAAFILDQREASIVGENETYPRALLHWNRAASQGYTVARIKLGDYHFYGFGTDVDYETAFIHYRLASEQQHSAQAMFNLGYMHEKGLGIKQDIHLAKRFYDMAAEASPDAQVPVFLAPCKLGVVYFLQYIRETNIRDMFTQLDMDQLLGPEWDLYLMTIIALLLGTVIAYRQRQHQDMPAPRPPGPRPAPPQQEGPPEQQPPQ
The assay is described as above.

Assay [8] addresses SEL1L L709P (mouse knock-in, L705P in mouse numbering) (mouse (endogenous in MEFs and P0 liver)) (UniProt Q9Z2G6). Description: co-IP; IP of endogenous SEL1L (1 ug anti-SEL1L, Protein A agarose, overnight 4 C) from MEF lysates (WT, Sel1L^S658P, Sel1L^L709P, Sel1L^P699T, Sel1L^ERCre KO); 150 mM NaCl, 25 mM Tris-HCl pH 7.5, 0.2% NP-40, 0.1% Triton X-100; immunoblot, prey band normalised to bait.

Where a chain is given by its changes, count along the chain named. Results are given in words; binding and its absence hold for the method and conditions named. In cells and extracts the contact can be indirect. Some results given as binding are weak or reduced against the parent protein; the word gives no strength.

With “SEL1L (mouse, wild type) (from UniProt Q9Z2G6 22-790)”, the binding entry in assay [1] is recorded as “binds”. For the molecule “BiP (mouse) (from UniProt P20029 20-655)”, the binding result in assay [2] and in assay [3] was “binds” in each case.

As to “HRD1 (mouse) (from UniProt Q9DBY1 1-612) (enzyme)”, the binding result in assay [2], in assay [4] and in assay [5] was “binds” each time.

B1: UBE2J1 (human) (enzyme, UniProt Q9Y385 1-318)
chain: METRYNLKSPAVKRLMKEAAELKDPTDHYHAQPLEDNLFEWHFTVRGPPDSDFDGGVYHGRIVLPPEYPMKPPSIILLTANGRFEVGKKICLSISGHHPETWQPSWSIRTALLAIIGFMPTKGEGAIGSLDYTPEERRALAKKSQDFCCEGCGSAMKDVLLPLKSGSDSSQADQEAKELARQISFKAEVNSSGKTISESDLNHSFSLTDLQDDIPTTFQGATASTSYGLQNSSAASFHQPTQPVAKNTSMSPRQRRAQQQSQRRLSTSPDVIQGHQPRDNHTDHGGSAVLIVILTLALAALIFRRIYLANEYIFDFEL
On to B1, for which the binding entry in assay [6] and in assay [7] was “binds” throughout.

B2: OS9 (human) (protein, UniProt Q13438 26-667)
chain: GGVGSLNLEELSEMRYGIEILPLPVMGGQSQSSDVVIVSSKYKQRYECRLPAGAIHFQREREEETPAYQGPGIPELLSPMRDAPCLLKTKDWWTYEFCYGRHIQQYHMEDSEIKGEVLYLGYYQSAFDWDDETAKASKQHRLKRYHSQTYGNGSKCDLNGRPREAEVRFLCDEGAGISGDYIDRVDEPLSCSYVLTIRTPRLCPHPLLRPPPSAAPQAILCHPSLQPEEYMAYVQRQADSKQYGDKIIEELQDLGPQVWSETKSGVAPQKMAGASPTKDDSKDSDFWKMLNEPEDQAPGGEEVPAEEQDPSPEAADSASGAPNDFQNNVQVKVIRSPADLIRFIEELKGGTKKGKPNIGQEQPVDDAAEVPQREPEKERGDPERQREMEEEEDEDEDEDEDEDERQLLGEFEKELEGILLPSDRDRLRSEVKAGMERELENIIQETEKELDPDGLKKESERDRAMLALTSTLNKLIKRLEEKQSPELVKKHKKKRVVPKKPPPSPQPTEEDPEHRVRVRVTKLRLGGPNQDLTVLEMKRENPQLKQIEGLVKELLEREGLTAAGKIEIKIVRPWAEGTEEGARWLTDEDTRNLKEIFFNILVPGAEEAQKERQRQKELESNYRRVWGSPGGEGTGDLDEFDF
For the molecule B2, the binding result in assay [6] and in assay [7] was “binds” in each case.

B3: UBE2J1 (mouse) (enzyme, UniProt Q9JJZ4 1-318)
chain: METRYNLKSPAVKRLMKEAAELKDPTDHYHAQPLEDNLFEWHFTVRGPPDSDFDGGVYHGRIVLPPEYPMKPPSIILLTANGRFEVGKKICLSISGHHPETWQPSWSIRTALLAIIGFMPTKGEGAIGSLDYTPEERRALAKKSQDFCCEGCGSAMKDVLLPLKSGSGSSQADQEAKELARQISFKAEVNSSGKTIAESDLNQCFSLNDSQDDLPTTFQGATASTSYGAQNPSGAPLPQPTQPAPKNTSMSPRQRRAQQQSQRRPSTSPDVLQGQPPRAHHTEHGGSAMLIIILTLALAALIFRRIYLANEYIFDFEL
B3: the binding result in assay [4], in assay [8] and in assay [5] was “binds” in each case.

B4: DERL2 (mouse) (protein, UniProt Q8BNI4 1-239)
chain: MAYQSLRLEYLQIPPVSRAYTTACVLTTAAVQLELITPFQLYFNPELIFKHFQIWRLITNFLFFGPVGFNFLFNMIFLYRYCRMLEEGSFRGRTADFVFMFLFGGFLMTLFGLFVSLVFLGQAFTIMLVYVWSRRNPYVRMNFFGLLNFQAPFLPWVLMGFSLLLGNSIIVDLLGIAVGHIYFFLEDIFPNQPGGIRILKTPSILRTIFDTPDEDPNYNPLPEERPGGFAWGEGQRLGG
B4: in assay [2], the binding result is “binds”.

B5: DERL2 (human) (protein, UniProt Q9GZP9 1-239)
chain: B4 chain with I188V, R206K, T207A
As to B5, the binding entry in assay [6] was “binds”.

B6: FAM8A1 (human) (protein, UniProt Q9UBU6 1-413)
chain: MAEGPEEARGHPPGQDDGGGDHEPVPSLRGPPTTAVPCPRDDPQAEPQAPGRPTAPGLAAAAAADKLEPPRELRKRGEAASGSGAELQEQAGCEAPEAAAPRERPARLSAREYSRQVHEWLWQSYCGYLTWHSGLAAFPAYCSPQPSPQSFPSGGAAVPQAAAPPPPQLGYYNPFYFLSPGAAGPDPRTAAGISTPAPVAGLGPRAPHVQASVRATPVTRVGSAAPSRSPSETGRQAGREYVIPSLAHRFMAEMVDFFILFFIKATIVLSIMHLSGIKDISKFAMHYIIEEIDEDTSMEDLQKMMVVALIYRLLVCFYEIICIWGAGGATPGKFLLGLRVVTCDTSVLIAPSRVLVIPSSNVSITTSTIRALIKNFSIASFFPAFITLLFFQHNRTAYDIVAGTIVVKRNGVR
With B6, in assay [6], the binding entry was “binds”.
